# In paper PMC11021398:
# By UniProt entry, the sequences of proteins in these tests, tags left out.
# UniProt Q00987: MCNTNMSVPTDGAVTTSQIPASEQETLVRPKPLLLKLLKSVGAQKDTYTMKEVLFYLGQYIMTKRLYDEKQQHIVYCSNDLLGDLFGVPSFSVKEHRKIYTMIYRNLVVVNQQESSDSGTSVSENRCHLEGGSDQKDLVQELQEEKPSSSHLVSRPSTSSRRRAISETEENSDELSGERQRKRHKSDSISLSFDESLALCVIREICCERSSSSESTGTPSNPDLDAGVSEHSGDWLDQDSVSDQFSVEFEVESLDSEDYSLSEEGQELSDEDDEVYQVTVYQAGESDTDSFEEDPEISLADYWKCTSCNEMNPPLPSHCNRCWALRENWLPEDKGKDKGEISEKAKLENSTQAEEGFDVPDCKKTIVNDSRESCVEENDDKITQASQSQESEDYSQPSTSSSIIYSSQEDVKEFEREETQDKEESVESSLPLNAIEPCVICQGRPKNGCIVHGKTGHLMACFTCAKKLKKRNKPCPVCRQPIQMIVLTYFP
# No constants are given. Whether binding was seen depends on the method and setting. Binding seen in cells or lysates may run through a third protein. Some results given as binding are weak or reduced against the parent protein; the word gives no strength.
# B1: DNA polymerase epsilon 2 (POLE2) (protein, UniProt P56282 1-527)
# chain: MAPERLRSRALSAFKLRGLLLRGEAIKYLTEALQSISELELEDKLEKIINAVEKQPLSSNMIERSVVEAAVQECSQSVDETIEHVFNIIGAFDIPRFVYNSERKKFLPLLMTNHPAPNLFGTPRDKAEMFRERYTILHQRTHRHELFTPPVIGSHPDESGSKFQLKTIETLLGSTTKIGDAIVLGMITQLKEGKFFLEDPTGTVQLDLSKAQFHSGLYTEACFVLAEGWFEDQVFHVNAFGFPPTEPSSTTRAYYGNINFFGGPSNTSVKTSAKLKQLEEENKDAMFVFLSDVWLDQVEVLEKLRIMFAGYSPAPPTCFILCGNFSSAPYGKNQVQALKDSLKTLADIICEYPDIHQSSRFVFVPGPEDPGFGSILPRPPLAESITNEFRQRVPFSVFTTNPCRIQYCTQEITVFREDLVNKMCRNCVRFPSSNLAIPNHFVKTILSQGHLTPLPLYVCPVYWAYDYALRVYPVPDLLVIADKYDPFTTTNTECLCINPGSFPRSGFSFKVFYPSNKTVEDSKLQGF
# Target: MDM2 (human (endogenous in MNNG HOS)) (UniProt Q00987)
# Test: co-IP; MNNG HOS cells lysed in IP lysis buffer; 1.0 mg protein incubated with the antibody at 4 °C overnight, then with 20 μL beads at 4 °C for 2 h; washed twice; western blot
binder,measurement,value
B1,binding,binds
